Among the data in PubChem BioAssay AID602296 (Broad Institute, 2012) are activation values, retold here.

Structures are written as SMILES. In all, about 2,000 compounds went through this assay and about 190 (9.5%) were called active. Inconclusive results (about 14%) are left out.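 How the source made its calls: active means fitted activation curve crossing 40% at a concentration no higher than the sample's top valid tested dose; inconclusive means flat fitted curve at 30% to 70% activation, or poor curve fit; inactive means signal decrease, flat curve within 30%, or the rest.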 This part holds few or none of the hits.

The test can be described thus: HSF-1 reporter activators over prolonged exposure, confirmation, cell-based, mouse, luciferase, cherry-pick, dose (AID 602296).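 Further: test compounds applied by themselves with no MG132 co-treatment.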 Conditions: NIH3T3-HGL HSF-1 response element luciferase, 48 h; at 26 µM (top of the series) unless noted.
For the compound `Cc1cccn2c(=O)c3c(nc12)N1CCC(Cc2ccccc2)CC1C1(C3)C(=O)N(C)C(=O)N(C)C1=O` (stereo not drawn), the activation is inactive: 2.68%. For the compound `Cc1oc(-c2ccccc2Cl)nc1CN1C(=O)CN=C(c2ccccc2)c2ccccc21`, the activation is inactive: -57.7%. As for `CSc1ccc(C(=O)C2CCCN(Cc3cccnc3)C2)cc1` (stereo not drawn), the figure is inactive: -0.796%; as for `CN1CC(C(=O)c2ccc(F)cc2)C(c2c(F)cccc2Cl)C1` (stereo not drawn), inactive: 2.93%. As for `CC(=O)c1ccccc1NC(=O)C1C2CCC(O2)C1C(=O)O` (stereo not drawn), the figure is inactive: -23.3%; as for `COc1ccc(N2C(=O)NC(=O)/C(=C/c3ccc([N+](=O)[O-])s3)C2=O)cc1`, inactive: 19.3%. As for `Cc1ccsc1C(=O)C1CCCN(Cc2ccccc2O)C1` (stereo not drawn), the figure is inactive: -13.8%; as for `COc1cccc(C2C([N+](=O)[O-])=C(N)Oc3c2c(=O)oc2ccccc32)c1` (stereo not drawn), inactive: 6.71%. For `Cn1c(O)c(C2=NNC(c3ccc(Cl)cc3)C2)c(=O)n(C)c1=O` (stereo not drawn), the activation is inactive: -15.9%. As for `CCOc1cccc(C2NCc3ccccc3-n3cccc32)c1O` (stereo not drawn), the figure is inactive: -5.06%. As for `C=CCN1CCc2cccc3c2[C@H]1Cc1ccc(O)c(O)c1-3`, the figure is inactive: -45.2%; as for `CCCc1[nH]nc2c1C1(C(=O)N(Cc3ccccc3)c3ccccc31)C(C(=O)OC)=C(N)O2` (stereo not drawn), inactive: -35.4%. Regarding `COc1ccccc1N1CCN(Cc2cccc(OC)c2O)CC1`, the activation is inactive: -9.22%. As for `COc1ccc(SCC2CN(C)CCC2c2ccc(F)cc2)cc1` (stereo not drawn), the figure is inactive: -48.2%; as for `COc1cc(/C=C/[N+](=O)[O-])ccc1O`, inactive: -12.9% [at 6 µM]; as for `O=c1[nH]c(=O)n(-c2ccccc2F)c(O)c1C=NCCC1=CCCCC1`, inactive: -0.09%. With `CC(Cc1ccccc1)NCC(=O)Nc1cc(N(C)C)nc2ccccc12` (stereo not drawn), the activation was inactive: -30.9%. With `COc1ccc(C(=O)C2CCCN(Cc3ccc(C)s3)C2)c(OC)c1` (stereo not drawn), the activation was inactive: -26.9%. Regarding `C/C1=C\[C@@H](C)C/C=C/[C@H]2[C@@H]3O[C@]3(C)[C@@H](C)[C@H]3[C@H](Cc4c[nH]c5ccccc45)NC(=O)[C@]32C(=O)/C=C/C(=O)[C@@H]1O`, the activation is inactive: -103%. As for `CCC(=NCc1ccco1)c1c(O)n(C2CCCCC2)c(=O)[nH]c1=O`, the figure is inactive: -18.8%; as for `COC(=O)N1C(c2ccccc2)C1c1ccccc1` (stereo not drawn), inactive: 5.74%. As for `COc1cc(O)cc2c1C(=O)OC(C)CCCC(=O)CCC/C=C\2` (stereo not drawn), the figure is inactive: -21.9%; as for `COc1ccc(N=Cc2c(O)n(Cc3ccccc3)c(=S)[nH]c2=O)c(OC)c1`, inactive: 3.27%; as for `CCOc1ccc(CN(CCCl)CCCl)cc1C(=O)OC`, inactive: 5.88%. `Cc1cc(=O)[nH]c(SCc2nc3ccccc3c(=O)n2-c2ccccc2C)n1`: the activation is inactive: -1.95%. As for `CN(C)CCc1nc2ccccc2c(=O)n1-c1ccccc1`, the figure is inactive: 11.7%; as for `C=CCNC(=O)c1c(N)n(Cc2ccco2)c2nc3ccccc3nc12`, inactive: -21.2%.

As to `O=C(CF)NC(NC(=S)Nc1ccccc1O)C(Cl)(Cl)Cl` (stereo not drawn), the activation was inactive: -11.6%. As to `CCCCn1c(C)c(C(=O)OCC)c2c(CN3CCOCC3)c(O)ccc21`, the activation is inactive: -16.6%. As for `COc1ccc(CCNCc2ccc(Br)cc2)cc1OC`, the figure is inactive: -20.7%; as for `O=c1cccc2n1CC1CC2CN(c2nc(N3CCCCC3)nc(N3CCCCC3)n2)C1` (stereo not drawn), inactive: -3.61%; as for `COc1ccc2ccc(O)c(CN3CC=C(c4ccccc4)CC3)c2c1`, inactive: -7.55%. As for `Fc1cccc(F)c1CN1CCN(c2ccc(Cl)cc2)CC1`, the figure is inactive: 5.26%.
